Library screening results

Data taken from ChEMBL document CHEMBL3988442, “University of Dundee, Small-Polar-MMV Screening Library” (2021).

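Assay on Mycobacterium tuberculosis, filed only as a heat shock assay from Cornell; the read-out is not stated. The concentration is filed as 10 mM, unlikely as a test dose, so the dose is not known. Higher reads as stronger inhibition (inferred: compounds with an IC50 in retests scored well above the rest). Of about 69,000 compounds tested this way, about 930 (1.4%) reached 50% or more in at least one test.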

Values are the deposited “Percent Effect”, in %.
How 0% and 100% were set is not recorded. Most values in the screen are low, and negative values occur.
Compounds were drawn at random from those tested, without regard to their results.

| SMILES | percent effect |
|---|---|
| `CCOC(=O)N1CCN(C(=O)CCn2cccc2)CC1` | -2.642 |
| `O=C(NCc1ccccc1Cn1cncn1)N1CCCC1` | -11.44 |
| `Nc1nccc(N2CCNC(C(=O)NCc3ccccn3)C2)n1` (stereo not shown) | -19.28 |
| `COc1ccc(OC)c2c(C)cc(N(C)CCO)nc12` | -30.98 |
| `Cc1cccc(C(=O)N2CCC[C@]3(C[C@@H](OCC4CC4)CO3)C2)n1.O=C(O)C(F)(F)F` | 5.615 |
| `Cc1cc(Oc2ccccc2C)nc(C2CCCN2)n1` (stereo not shown) | 12.41 |
| `O=C(c1cncc2ccccc12)N1CCC[C@@H]1CO` | 6.639 |
| `CN(C)C(=O)CCC[S+]([O-])Cc1cc(Cl)ccc1Cl` (stereo not shown) | 16.52 |
| `CCN1CCN(C(=O)Cc2ccc(S(=O)(=O)C(F)F)cc2)CC1` | 1.521 |
| `COc1cccc(-c2noc(C3CCN(CC(N)=O)C3)n2)c1` (stereo not shown) | -9.556 |
| `Cc1cc(=O)c2cc(F)ccc2n1CC(=O)O` | 15.93 |
| `CCOC(=O)C1CCN(c2cc(C(=O)N3CCOCC3)nc(C)n2)CC1` | 8.739 |
| `COCCN(C(=O)c1ccsc1)c1ccc(C#N)cc1` | -33.21 |
| `O=C(Cc1cc(F)cc(Cl)c1)N[C@@H]1CCNC[C@H]1O` | -14.42 |
| `Cc1cc(-n2nnc(C(=O)O)c2-c2ccncc2)ccc1F` | -2.918 |
| `CCOc1cccc(COC(=O)c2scnc2C)n1` | 10.16 |
| `Cc1cc(C2CCCN2CCCc2nc3ccccc3o2)on1` (stereo not shown) | 19.83 |
| `Cn1c(=O)n(C)c2nc(Br)c(CC(=O)c3ccccc3)n2c1=O` | -3.605 |
| `[H][C@@]12OCCN(C(=O)c3ccncc3)[C@@]1([H])CC[C@H]2OCCN(C)C` | 10.58 |
| `CC(C)OCCN1CCC(Nc2ncc(Br)cn2)CC1` | 7.852 |
| `[H][C@]12CC[C@]([H])(CN(c3nccc(C4CCCC4)n3)C1)N(CCOC)C2=O` | 16.91 |
| `COc1ccc(CC(=O)N2CCc3nc(C(=O)N(C)C)sc3CC2)cc1` | 1.879 |
| `[H][C@@]12CS(=O)(=O)C[C@]1([H])N(Cc1ccc(OC)c(C)c1)CCN2CC1CC1` | -20.3 |
| `O=C(c1ccc(Cl)cc1)N1CCC2(CC1)C(=O)Nc1ccccc12` | -5.823 |
| `[H][C@]12CNCCN1C[C@H](c1ccccc1)[C@H]2C(=O)OCC` | 37.54 |
| `CN(C)C(C(=O)NCC1(O)CCCCC1)c1cccc(F)c1` (stereo not shown) | 8.111 |
| `O=C1CCCCN1Cc1cccc(OC(F)F)c1` | 0.01924 |
| `O=C(c1ccncn1)N1CCC[C@]2(C[C@@H](OCc3ccccn3)CO2)C1` | -9.162 |
| `CC1CCCN(Cc2ccc(C(N)=O)cc2)C1` (stereo not shown) | 0.3395 |
| `NC(=O)CC1CCCCN1C(=O)Cc1cccc(Br)c1` (stereo not shown) | -14.58 |
| `O=C1N(c2cccc(Cl)c2)Cc2nc(=O)[nH]n21` | -17.12 |
| `CCC(C)NC(=O)Cn1ccc2sc(C)cc2c1=O` (stereo not shown) | 0.01003 |
| `COc1ccc(Cc2ncc3c(n2)CN(C(=O)C(C)(C)OC)C3)cc1` | -26.5 |
| `Clc1ccc(CNc2cnn(CCN3CCOCC3)c2)cc1Cl` | -6.872 |
| `Cc1cccc(CN2CCC3(CC(C(=O)NCC(C)C)=NO3)C2)c1` (stereo not shown) | 29.07 |
| `c1cnc2[nH]c(C3CCCC3)c(CN3CCOCC3)c2c1` | 4.337 |
| `CCOC(=O)c1sc2ccsc2c1CNS(C)(=O)=O` | -10.85 |
| `Cc1cc(CN(C)C(=O)NC2CCCC2)no1` | -1.855 |
| `Cc1ccc(-n2nnc(CC(=O)N3CCN(C4CC4)CC3)c2C)cc1` | -31.06 |
| `COc1ccccc1N1CCN(C(=O)COc2c(C)occc2=O)CC1` | 6.532 |
| `FC(F)(F)CCc1ccnc(NCc2csc(N3CCOCC3)n2)n1` | -10.19 |
| `COc1ccccc1-n1nc(C(C)C)nc1Cc1nnc(N)s1` | -10.89 |
| `Nc1nc2c(c(N3CCCC(CN4CCCC4=O)C3)n1)CCNCC2` (stereo not shown) | 2.666 |
| `CC(C)n1ncc2cc(NC(=O)N3CCSCC3)cnc21` | -11.18 |
| `[H][C@]12CN(C(C)=O)CCN1C[C@H](c1ccccc1)[C@H]2C(=O)OCC` | 31.13 |
| `Cc1ccc(NC(C)C(=O)NCc2cccs2)cc1Cl` (stereo not shown) | -7.255 |
| `CCC1CN(CC(=O)NCCC#N)CCO1` (stereo not shown) | -5.821 |
| `CCN(C)Cc1cccc(CNC(=O)NCCc2ccccn2)c1` | -7.737 |
| `COC(=O)CN(C(=O)c1ccc(-n2ccnc2)cc1)C1CC1` | 10.27 |
| `O=C(NC(CN1CCCC1)c1ccccc1)c1c(O)cc(F)cc1F` (stereo not shown) | -14.52 |
| `Cc1cccc(OCC2CCCN(C(=O)CN(C)C3CCNCC3)C2)c1` (stereo not shown) | -0.9969 |
| `CN(C)CCNC(=O)c1cc2c(s1)CCN2S(C)(=O)=O` | -10.96 |
| `CC(NC(=O)Cc1cccs1)c1nnc2n1CCC2` (stereo not shown) | -8.888 |
| `CC(C(=O)NC1CC1)S(=O)(=O)Cc1nc(Cc2ccccc2)no1` (stereo not shown) | 36.06 |

Some entries from above, unchanged:

SMILES	percent effect
CN(C)C(C(=O)NCC1(O)CCCCC1)c1cccc(F)c1 (stereo not shown)	8.111
O=C(Cc1cc(F)cc(Cl)c1)N[C@@H]1CCNC[C@H]1O	-14.42
COc1ccccc1N1CCN(C(=O)COc2c(C)occc2=O)CC1	6.532
CCOc1cccc(COC(=O)c2scnc2C)n1	10.16